# Assay results published in publication PMC10992996.
# Sequences of proteins named here, by UniProt entry; tags and fusion partners are left off. Residues count along the entry.
# UniProt Q5IJ48, residues 29-1285: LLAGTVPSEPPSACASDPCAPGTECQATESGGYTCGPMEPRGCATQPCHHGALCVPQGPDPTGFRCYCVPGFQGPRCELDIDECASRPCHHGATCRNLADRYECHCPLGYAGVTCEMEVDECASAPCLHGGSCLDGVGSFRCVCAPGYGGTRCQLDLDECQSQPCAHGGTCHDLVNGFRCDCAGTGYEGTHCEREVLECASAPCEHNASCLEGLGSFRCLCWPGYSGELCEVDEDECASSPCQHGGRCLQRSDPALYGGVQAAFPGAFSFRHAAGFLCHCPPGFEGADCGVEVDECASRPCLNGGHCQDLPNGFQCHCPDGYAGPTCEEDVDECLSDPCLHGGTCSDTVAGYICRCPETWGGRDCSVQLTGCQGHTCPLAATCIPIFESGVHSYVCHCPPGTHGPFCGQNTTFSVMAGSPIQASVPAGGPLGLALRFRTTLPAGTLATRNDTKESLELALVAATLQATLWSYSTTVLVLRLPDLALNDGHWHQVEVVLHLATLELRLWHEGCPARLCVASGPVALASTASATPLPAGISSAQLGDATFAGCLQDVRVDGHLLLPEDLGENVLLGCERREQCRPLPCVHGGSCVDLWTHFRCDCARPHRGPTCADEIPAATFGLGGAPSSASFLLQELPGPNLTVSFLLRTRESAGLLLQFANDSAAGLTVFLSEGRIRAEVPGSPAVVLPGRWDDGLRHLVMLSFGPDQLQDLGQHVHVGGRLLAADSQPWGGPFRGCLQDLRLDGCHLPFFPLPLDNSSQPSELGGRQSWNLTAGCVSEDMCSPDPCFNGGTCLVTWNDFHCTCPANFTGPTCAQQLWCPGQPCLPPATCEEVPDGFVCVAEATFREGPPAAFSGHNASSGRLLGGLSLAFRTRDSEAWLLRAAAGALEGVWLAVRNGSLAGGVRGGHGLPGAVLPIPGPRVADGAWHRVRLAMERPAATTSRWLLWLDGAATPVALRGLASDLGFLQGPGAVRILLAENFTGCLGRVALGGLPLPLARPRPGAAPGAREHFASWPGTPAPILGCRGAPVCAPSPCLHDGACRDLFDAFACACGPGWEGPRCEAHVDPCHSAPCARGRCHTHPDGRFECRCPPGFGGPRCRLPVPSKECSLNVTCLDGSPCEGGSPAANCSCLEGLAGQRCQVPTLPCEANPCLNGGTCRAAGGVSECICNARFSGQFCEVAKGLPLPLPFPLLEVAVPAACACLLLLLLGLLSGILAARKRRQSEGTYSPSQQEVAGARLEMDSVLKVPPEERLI
# Substitutions are numbered along the chain they refer to. No constants are given. Whether binding was seen depends on the method and setting. Binding seen in cells or lysates may run through a third protein. Some entries that bind do so weakly or less than the wild type. For some assays here: Sequences can lack the tags named with a protein.
# Experiments:
# [1] = target: T1, Human canonical CRB1 (Crumbs homolog 1) (human) (UniProt P82279); test: co-IP; HEK293T cells co-transfected pairwise with a FLAG and an HA construct, 48 h; lysis in TBS (30 mM Tris-HCl pH 7.4, 150 mM NaCl) with 0.5% Nonidet P40; FLAG-IP on ANTI-FLAG M2 Affinity Gel 60-90 min at 4°C, elution with FLAG peptide; Western blot with HA and FLAG antibodies; for mutants HA/FLAG signal in eluates relative to WT, three biological replicates
# T1 sequence: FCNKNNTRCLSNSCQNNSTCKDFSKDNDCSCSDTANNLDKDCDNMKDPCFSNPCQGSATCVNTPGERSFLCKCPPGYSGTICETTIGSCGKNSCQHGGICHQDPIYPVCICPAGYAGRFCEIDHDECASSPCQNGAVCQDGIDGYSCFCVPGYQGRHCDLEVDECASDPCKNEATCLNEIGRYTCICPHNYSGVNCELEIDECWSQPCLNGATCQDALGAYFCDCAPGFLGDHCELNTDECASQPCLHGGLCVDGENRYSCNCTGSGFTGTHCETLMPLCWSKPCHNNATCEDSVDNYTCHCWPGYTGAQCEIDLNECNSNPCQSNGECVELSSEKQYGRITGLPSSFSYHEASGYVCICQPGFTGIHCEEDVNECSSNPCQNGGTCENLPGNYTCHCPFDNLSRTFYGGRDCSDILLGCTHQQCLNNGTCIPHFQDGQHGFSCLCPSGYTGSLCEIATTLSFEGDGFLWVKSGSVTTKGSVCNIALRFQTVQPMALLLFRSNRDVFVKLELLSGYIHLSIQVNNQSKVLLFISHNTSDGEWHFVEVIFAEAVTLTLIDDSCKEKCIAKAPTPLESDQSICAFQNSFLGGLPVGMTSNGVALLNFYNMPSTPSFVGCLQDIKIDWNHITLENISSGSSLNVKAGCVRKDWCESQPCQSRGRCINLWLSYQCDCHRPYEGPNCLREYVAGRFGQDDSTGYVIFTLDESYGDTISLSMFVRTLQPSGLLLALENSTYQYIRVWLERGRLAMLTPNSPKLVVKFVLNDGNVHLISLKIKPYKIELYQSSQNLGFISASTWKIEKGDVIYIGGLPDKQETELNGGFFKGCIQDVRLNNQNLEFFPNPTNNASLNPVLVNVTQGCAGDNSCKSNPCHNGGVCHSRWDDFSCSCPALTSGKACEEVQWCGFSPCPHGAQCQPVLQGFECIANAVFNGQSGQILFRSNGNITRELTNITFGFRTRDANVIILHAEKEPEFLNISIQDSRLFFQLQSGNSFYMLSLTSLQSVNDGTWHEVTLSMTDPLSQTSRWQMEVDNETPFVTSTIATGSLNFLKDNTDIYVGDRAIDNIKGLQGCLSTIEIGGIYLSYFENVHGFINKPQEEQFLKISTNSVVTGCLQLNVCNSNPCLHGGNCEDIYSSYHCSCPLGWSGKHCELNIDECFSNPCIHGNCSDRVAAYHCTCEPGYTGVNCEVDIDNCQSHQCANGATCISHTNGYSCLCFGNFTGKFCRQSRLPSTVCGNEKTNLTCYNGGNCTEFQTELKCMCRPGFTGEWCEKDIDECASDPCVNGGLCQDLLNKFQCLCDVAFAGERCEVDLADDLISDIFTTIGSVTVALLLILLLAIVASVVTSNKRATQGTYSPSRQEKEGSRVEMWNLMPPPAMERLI
# [2] = target: T2, CRB1-FLAG p.C681Y (human) (UniProt P82279); test: as above
# T2 sequence: T1 sequence with C656Y
substance,measurement,setting,value
Human canonical CRB2 (Crumbs homolog 2) (from UniProt Q5IJ48-1 29-1285),binding,[1],binds
same,binding,[2],binds
